From PMC5577189
No constants are given. Whether binding was seen depends on the method and setting. Binding seen in cells or lysates may run through a third protein. Some binding calls cover weakened binding; strength is not graded here.

By UniProt entry, the sequences of proteins in these tests, tags left out.
UniProt Q9UBN7: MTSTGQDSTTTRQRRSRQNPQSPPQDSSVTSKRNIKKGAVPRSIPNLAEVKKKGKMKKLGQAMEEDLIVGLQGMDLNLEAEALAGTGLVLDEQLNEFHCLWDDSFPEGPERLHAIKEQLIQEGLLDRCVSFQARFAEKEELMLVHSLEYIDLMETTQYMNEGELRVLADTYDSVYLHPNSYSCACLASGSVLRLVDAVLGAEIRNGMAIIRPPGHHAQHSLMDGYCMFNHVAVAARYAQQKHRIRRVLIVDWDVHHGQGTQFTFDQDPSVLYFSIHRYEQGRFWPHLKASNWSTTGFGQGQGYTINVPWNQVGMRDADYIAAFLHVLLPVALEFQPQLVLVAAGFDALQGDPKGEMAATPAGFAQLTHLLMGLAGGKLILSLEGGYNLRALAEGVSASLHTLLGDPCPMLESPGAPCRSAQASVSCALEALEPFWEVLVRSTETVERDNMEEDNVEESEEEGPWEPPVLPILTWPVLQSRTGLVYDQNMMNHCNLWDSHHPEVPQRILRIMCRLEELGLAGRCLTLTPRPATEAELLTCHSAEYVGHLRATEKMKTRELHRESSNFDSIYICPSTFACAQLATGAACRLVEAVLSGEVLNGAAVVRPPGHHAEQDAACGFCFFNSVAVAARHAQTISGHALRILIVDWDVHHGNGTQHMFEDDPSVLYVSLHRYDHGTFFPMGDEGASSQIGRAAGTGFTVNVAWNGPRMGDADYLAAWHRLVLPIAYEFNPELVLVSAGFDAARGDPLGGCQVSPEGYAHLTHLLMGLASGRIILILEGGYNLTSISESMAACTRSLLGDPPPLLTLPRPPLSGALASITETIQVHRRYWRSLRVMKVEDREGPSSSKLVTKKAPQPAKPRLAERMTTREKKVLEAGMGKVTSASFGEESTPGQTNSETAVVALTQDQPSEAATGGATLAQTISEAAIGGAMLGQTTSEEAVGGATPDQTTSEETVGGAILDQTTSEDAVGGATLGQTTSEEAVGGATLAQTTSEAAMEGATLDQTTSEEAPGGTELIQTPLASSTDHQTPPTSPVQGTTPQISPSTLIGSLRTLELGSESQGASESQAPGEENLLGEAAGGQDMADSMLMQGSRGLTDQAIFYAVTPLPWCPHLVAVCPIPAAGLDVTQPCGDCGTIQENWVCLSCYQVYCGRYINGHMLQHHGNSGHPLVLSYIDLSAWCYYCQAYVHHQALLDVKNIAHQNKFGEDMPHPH

What was measured:
[1] = biological target: Cyclin-dependent kinase 1 (human (endogenous in MCF7)) (UniProt P06493); test: condition: only untreated cells (without ammonium chloride); co-IP; anti-CDK1 immunoprecipitation from NP40 extracts of untreated MCF7 cells; immunoblot
Flag-CDK1 = Flag-CDK1 (UniProt P06493); test: co-IP; anti-Flag immunoprecipitation from extracts of transfected HEK293T cells treated with etoposide and concanamycin A for 24 hours; immunoblot; normal mouse serum as control
[2] = biological target: Cyclin-dependent kinase 1 (human (endogenous in MCF7)) (UniProt P06493); test: co-IP; anti-CDK1 immunoprecipitation from NP40 extracts (150 mM NaCl, 10 mM Tris-HCl pH 7.5, 1% NP40) of MCF7 cells treated with ammonium chloride (40 mM) or concanamycin A (50 nM) for 24 hours; immunoblot; normal mouse serum as control
[3] = biological target: Cyclin-dependent kinase 1 (human (endogenous in MCF7)) (UniProt P06493); test: condition: only cells treated with 3-methyladenine (autophagosome formation blocked); co-IP; anti-CDK1 immunoprecipitation from NP40 extracts (5 mg of extract protein) of MCF7 cells treated with 3-methyladenine (10 mM) for 24 hours; immunoblot

Row | binding [1] | binding (Flag-CDK1) | binding [2] | binding [3] | Substance
1 | no binding | binds | binds | no binding | p62/SQSTM1 (from UniProt Q13501 1-440)
2 |  | binds | binds | no binding | Histone deacetylase 6 (from UniProt Q9UBN7 1-1215)
